Test results as given in paper PMC10080907.

The chains behind the UniProt entries cited, without tags or fusion partners. Where a name states a change or a piece, a line headed by the entry shows the natural chain unless it says otherwise.
UniProt I7MFN1: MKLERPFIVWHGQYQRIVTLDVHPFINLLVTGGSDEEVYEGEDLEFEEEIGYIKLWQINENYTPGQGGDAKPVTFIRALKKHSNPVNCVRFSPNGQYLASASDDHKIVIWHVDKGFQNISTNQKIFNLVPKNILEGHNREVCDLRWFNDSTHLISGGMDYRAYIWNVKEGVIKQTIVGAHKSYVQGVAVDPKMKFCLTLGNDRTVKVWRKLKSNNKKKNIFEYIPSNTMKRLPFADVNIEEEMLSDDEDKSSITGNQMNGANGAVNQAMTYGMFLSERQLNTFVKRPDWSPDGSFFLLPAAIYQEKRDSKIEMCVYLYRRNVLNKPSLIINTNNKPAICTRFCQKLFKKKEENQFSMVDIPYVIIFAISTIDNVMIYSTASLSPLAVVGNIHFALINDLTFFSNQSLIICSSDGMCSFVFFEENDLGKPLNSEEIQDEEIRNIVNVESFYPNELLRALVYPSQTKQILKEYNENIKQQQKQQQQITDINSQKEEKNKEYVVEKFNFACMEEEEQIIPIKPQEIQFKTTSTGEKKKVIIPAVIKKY
UniProt Q229R6: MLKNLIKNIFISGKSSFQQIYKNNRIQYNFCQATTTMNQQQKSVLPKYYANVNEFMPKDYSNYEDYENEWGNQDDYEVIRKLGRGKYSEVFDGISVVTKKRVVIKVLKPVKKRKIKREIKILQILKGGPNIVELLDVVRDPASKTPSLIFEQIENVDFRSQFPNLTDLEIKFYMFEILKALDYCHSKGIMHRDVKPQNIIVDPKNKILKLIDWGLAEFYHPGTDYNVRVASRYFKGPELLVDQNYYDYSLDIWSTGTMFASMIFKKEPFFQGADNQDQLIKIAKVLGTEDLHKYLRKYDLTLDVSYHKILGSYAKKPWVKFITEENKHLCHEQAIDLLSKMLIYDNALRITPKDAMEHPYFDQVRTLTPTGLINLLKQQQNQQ
UniProt I7M490: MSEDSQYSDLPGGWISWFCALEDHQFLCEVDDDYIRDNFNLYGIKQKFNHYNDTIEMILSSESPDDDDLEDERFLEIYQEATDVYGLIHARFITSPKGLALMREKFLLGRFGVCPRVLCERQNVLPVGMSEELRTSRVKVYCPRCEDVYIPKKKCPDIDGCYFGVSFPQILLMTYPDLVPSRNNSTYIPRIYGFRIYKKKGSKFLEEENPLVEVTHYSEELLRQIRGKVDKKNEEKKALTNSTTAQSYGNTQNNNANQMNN
UniProt Q24HK6: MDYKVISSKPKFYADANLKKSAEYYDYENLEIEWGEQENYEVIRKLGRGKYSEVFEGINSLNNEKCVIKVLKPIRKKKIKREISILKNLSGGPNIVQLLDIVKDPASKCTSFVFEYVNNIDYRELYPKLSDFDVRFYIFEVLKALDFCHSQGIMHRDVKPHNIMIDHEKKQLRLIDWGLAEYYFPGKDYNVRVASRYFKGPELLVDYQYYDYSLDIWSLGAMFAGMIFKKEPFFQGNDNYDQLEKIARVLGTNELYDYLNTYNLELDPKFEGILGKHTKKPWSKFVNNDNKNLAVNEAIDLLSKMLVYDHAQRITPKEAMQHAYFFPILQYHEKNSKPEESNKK

Biological target: Cac2^Tt-FZZ (Tetrahymena thermophila) (UniProt I7MFN1)
Experiment: affinity purification with mass spectrometry; tandem affinity purification of the FZZ-tagged bait from Benzonase-treated whole cell extracts of growing Tetrahymena (IgG-Sepharose 4 h at 4 °C, TEV protease overnight, then M2 agarose); SAINTexpress, FDR ≤ 0.01 against untagged wildtype cells

| binding | Substance |
| --- | --- |
| binds | TTHERM_01345800 (putative Casein kinase II subunit, similar to budding yeast CSKA1) (from UniProt Q229R6) |
| binds | CSKB1 (TTHERM_00780530, putative regulatory beta subunit of Casein kinase II) (from UniProt I7M490) |
| binds | TTHERM_01000180 (putative Casein kinase II subunit, similar to budding yeast CSKA2) (from UniProt Q24HK6) |

These are yes or no findings as the source states them, for the method shown. In cells and extracts the contact can be indirect. Here binding means that the protein was enriched with, or labelled near, the bait; the list need not be complete.
